Assay results from patent US20220177546A1.
These are yes or no findings as the source states them, for the method shown. Some binding calls cover weakened binding; strength is not graded here.

By UniProt entry, the sequences of proteins in these tests, tags left out. Where a name states a change or a piece, a line headed by the entry shows the natural chain unless it says otherwise.
UniProt Q16787: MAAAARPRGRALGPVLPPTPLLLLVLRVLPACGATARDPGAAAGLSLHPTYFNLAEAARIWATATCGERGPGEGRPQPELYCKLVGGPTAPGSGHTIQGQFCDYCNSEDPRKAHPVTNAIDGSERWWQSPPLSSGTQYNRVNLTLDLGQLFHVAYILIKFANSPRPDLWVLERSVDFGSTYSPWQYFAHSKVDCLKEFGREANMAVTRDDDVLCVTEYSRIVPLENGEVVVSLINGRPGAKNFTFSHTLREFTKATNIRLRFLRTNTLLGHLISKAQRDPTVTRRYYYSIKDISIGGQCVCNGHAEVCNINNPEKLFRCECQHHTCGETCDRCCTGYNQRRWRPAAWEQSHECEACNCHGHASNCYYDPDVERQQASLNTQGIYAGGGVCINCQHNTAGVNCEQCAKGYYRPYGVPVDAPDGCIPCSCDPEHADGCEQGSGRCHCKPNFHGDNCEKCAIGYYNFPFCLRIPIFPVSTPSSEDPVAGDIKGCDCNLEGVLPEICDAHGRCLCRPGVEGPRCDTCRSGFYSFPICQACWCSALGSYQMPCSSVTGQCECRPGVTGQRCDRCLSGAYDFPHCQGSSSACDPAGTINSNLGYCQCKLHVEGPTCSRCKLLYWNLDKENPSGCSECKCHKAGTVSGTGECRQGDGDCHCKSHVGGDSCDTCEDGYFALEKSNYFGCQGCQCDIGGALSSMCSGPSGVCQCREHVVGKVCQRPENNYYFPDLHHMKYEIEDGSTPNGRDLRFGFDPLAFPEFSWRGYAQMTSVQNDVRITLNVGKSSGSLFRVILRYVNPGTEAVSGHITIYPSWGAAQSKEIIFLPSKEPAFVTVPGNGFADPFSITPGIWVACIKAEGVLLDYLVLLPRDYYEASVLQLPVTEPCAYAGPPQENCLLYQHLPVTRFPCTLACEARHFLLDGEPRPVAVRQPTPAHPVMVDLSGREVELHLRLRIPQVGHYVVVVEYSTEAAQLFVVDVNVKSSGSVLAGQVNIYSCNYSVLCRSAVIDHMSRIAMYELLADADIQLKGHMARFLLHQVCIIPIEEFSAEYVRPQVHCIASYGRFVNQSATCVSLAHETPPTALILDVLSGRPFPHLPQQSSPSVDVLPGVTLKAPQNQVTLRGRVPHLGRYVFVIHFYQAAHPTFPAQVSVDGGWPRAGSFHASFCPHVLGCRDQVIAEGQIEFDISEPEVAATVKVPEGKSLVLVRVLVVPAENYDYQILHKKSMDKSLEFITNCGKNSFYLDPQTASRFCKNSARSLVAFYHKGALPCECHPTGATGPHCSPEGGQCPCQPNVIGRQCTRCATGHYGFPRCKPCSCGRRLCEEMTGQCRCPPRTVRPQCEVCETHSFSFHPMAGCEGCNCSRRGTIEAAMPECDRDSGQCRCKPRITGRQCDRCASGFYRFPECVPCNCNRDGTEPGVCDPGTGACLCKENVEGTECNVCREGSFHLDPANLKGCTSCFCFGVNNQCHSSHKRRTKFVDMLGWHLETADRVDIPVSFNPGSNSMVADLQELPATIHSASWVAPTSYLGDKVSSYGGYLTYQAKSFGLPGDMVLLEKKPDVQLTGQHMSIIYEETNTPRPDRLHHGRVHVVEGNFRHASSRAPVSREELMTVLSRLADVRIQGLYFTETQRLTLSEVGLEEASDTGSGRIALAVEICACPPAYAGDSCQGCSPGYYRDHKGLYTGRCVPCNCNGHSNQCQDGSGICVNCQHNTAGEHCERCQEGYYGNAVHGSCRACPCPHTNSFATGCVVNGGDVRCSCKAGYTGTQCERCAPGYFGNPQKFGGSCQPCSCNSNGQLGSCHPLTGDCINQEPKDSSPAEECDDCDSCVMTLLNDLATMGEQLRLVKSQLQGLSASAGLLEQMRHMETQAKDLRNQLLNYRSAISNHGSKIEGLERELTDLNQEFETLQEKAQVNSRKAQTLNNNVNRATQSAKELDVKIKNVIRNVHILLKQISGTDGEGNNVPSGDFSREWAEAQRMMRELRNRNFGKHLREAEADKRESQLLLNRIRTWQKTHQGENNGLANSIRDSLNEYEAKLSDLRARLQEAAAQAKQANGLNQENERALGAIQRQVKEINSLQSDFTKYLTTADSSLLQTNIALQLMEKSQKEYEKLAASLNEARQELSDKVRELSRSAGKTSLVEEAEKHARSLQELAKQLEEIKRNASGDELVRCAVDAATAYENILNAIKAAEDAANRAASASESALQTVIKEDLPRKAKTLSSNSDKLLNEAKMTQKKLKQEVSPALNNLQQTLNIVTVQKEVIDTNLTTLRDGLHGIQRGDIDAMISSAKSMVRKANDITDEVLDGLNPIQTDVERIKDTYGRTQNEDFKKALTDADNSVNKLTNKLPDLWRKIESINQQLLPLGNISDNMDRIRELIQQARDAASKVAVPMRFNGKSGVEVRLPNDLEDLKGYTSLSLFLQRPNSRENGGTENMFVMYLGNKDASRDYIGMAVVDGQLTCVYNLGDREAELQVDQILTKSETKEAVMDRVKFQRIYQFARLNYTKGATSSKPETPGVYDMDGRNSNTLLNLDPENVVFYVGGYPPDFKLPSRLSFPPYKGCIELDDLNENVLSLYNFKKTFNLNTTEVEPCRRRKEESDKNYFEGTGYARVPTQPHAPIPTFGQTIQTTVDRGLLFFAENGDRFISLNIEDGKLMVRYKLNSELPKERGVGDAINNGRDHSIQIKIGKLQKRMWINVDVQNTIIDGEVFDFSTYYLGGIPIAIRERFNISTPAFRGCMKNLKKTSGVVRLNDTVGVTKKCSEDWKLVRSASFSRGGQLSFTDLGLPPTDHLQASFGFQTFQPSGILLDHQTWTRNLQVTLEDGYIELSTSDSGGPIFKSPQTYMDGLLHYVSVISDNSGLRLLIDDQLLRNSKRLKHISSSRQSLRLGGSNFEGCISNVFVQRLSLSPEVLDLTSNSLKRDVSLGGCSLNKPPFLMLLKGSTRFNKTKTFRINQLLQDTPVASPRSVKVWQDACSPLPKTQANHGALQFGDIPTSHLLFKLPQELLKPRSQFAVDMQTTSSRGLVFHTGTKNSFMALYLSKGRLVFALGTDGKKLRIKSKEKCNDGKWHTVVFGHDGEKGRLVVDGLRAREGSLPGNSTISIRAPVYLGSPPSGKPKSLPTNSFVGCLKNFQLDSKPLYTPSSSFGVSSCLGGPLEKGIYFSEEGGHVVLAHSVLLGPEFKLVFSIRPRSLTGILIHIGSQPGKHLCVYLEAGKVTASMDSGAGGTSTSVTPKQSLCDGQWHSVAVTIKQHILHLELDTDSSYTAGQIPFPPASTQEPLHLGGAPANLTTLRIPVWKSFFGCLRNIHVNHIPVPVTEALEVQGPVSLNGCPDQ
UniProt Q02388: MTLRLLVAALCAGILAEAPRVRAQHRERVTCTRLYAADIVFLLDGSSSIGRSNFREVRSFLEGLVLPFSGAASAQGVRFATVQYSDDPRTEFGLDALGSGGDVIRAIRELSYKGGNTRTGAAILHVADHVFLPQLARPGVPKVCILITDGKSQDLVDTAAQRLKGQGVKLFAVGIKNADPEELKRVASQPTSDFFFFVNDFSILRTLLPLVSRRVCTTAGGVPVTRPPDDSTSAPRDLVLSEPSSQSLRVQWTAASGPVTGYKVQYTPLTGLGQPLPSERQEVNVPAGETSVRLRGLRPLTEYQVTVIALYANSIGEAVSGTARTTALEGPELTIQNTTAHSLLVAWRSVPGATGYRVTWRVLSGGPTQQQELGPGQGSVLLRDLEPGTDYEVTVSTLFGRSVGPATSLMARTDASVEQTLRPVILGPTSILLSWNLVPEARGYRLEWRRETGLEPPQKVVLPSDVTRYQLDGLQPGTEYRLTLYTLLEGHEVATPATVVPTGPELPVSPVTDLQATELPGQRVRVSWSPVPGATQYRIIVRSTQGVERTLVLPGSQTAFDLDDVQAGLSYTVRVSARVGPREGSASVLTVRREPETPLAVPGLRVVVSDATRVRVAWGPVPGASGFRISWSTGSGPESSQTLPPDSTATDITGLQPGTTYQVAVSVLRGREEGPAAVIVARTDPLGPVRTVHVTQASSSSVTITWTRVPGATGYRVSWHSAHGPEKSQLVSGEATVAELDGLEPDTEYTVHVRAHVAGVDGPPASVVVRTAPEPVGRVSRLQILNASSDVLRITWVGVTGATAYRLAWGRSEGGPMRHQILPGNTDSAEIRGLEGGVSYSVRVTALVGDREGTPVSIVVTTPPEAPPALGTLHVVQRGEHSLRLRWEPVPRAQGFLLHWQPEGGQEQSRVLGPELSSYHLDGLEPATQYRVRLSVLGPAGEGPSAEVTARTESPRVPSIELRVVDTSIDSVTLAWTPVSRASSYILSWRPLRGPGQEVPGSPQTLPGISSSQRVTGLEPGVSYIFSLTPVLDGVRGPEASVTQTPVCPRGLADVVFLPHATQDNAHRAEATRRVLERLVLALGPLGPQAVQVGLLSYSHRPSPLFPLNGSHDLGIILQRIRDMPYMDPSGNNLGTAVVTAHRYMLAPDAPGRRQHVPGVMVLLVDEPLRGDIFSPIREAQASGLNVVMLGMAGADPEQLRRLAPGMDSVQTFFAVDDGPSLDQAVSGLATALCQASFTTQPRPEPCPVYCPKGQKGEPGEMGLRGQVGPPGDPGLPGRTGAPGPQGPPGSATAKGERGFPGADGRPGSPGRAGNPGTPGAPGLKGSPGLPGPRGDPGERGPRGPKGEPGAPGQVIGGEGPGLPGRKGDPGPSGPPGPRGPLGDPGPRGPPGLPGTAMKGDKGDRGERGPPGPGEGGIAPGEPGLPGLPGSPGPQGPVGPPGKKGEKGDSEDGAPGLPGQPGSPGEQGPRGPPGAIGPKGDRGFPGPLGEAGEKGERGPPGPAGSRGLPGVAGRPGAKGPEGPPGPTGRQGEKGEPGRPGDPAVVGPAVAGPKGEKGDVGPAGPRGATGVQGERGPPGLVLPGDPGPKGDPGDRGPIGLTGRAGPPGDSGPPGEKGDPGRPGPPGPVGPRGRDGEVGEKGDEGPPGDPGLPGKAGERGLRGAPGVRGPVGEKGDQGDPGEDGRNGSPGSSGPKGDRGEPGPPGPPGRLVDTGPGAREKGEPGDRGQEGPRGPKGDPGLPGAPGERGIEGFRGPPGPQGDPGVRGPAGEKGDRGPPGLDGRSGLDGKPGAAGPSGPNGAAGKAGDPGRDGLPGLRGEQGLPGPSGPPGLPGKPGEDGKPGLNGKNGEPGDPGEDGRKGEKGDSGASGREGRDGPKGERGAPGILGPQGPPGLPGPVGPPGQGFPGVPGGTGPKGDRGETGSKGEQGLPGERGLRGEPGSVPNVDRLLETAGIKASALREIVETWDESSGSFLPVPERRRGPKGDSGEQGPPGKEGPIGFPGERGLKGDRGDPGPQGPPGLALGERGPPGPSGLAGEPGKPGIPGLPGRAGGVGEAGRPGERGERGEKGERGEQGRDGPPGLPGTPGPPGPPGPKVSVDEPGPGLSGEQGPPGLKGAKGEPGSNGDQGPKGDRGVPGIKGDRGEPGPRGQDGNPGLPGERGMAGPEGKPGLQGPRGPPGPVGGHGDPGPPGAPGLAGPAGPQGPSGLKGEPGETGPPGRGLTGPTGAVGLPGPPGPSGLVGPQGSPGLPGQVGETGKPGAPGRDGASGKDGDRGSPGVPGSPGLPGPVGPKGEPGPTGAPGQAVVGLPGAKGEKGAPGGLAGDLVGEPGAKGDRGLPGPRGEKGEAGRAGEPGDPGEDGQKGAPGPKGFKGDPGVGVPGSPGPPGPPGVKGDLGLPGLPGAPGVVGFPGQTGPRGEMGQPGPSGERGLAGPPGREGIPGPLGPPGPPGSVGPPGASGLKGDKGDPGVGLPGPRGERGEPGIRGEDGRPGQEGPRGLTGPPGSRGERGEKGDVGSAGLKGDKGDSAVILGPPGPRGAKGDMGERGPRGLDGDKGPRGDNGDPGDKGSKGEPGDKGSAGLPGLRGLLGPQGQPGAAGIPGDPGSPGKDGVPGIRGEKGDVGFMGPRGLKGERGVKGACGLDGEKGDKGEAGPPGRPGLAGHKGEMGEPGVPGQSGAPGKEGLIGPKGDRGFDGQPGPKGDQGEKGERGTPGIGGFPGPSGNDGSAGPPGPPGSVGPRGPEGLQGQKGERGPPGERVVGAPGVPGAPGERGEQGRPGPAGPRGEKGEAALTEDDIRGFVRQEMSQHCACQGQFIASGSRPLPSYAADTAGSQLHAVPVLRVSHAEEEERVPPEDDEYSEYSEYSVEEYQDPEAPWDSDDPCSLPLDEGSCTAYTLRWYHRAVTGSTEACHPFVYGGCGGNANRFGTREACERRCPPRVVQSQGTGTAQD

Assays:
laminin-332 [1] = target: laminin-332 (UniProt Q16787); assay: laminin-332 binding assay (FIG. 6 legend)
laminin-332 [2] = target: laminin-332 (UniProt Q16787); assay: laminin-332 binding assay

| Substance | binding (laminin-332 [1]) | binding (laminin-332 [2]) |
| --- | --- | --- |
| MCB-derived rCol7 composition (recombinant human collagen 7 produced by CHO cell clone B1STBSTbcp03) (from UniProt Q02388 17-2944) | binds | binds |
| reference collagen 7 (from human fibroblasts) (from UniProt Q02388 17-2944) | binds | binds |
